From article PMC11676817, “Antiproliferative and Morphological Analysis Triggered by Drugs Contained in the Medicines for Malaria Venture COVID-Box Against Toxoplasma gondii Tachyzoites” (Microorganisms, 2024)

System: Toxoplasma gondii tachyzoites of the RH strain
Assay: microbe, parasite or virus in culture
Details: 168 h, read-out: Inhibition of tachyzoite proliferation

Compound: CCCCc1oc2ccccc2c1C(=O)c1cc(I)c(OCCN(CC)CC)c(I)c1 [amiodarone, Amiodarone]
- inhibition at 1 µM: ≥ 70%
